The results in this text go back to patent US12029715B2, “Precursor compounds for providing retinoids of the vitamin A5 pathway and uses thereof” (UNIVERSITY OF DEBRECEN, priority 2015, dated 2024).

A short description of this series: HPLC-MS-MS determination of endogenous retinoid levels in mouse serum, liver and brain.
The mark [1] stands for this setting: young wild-type non-vitamin A supplemented mice.

Molecules are shown by their SMILES.

As for `CC(C=CC1=C(C)CCCC1(C)C)=CC=CC(C)CC(=O)O` (stereo not drawn) [9CDHRA, 9-cis-13,14-dihydroretinoic acid], under “WT mice”, the “endogenous concentration in brain” value came out at 7 ± 1 ng/g; the “endogenous concentration in brain, molar” value is roughly 20 nM; the “endogenous concentration in liver” value is 135 ± 12 ng/g; the “endogenous concentration in liver, molar” value is roughly 700 nM. Further, where the note is “WT mice”, the “endogenous concentration in serum” value came out at 118 ± 15 ng/mL and the “endogenous concentration in serum, molar” value was roughly 400 nM.

With `CC1=C(/C=C/C(C)=C/C=C/C(C)CC(=O)O)C(C)(C)CCC1` (stereo not drawn) [ATDHRA, all-trans-13,14-dihydroretinoic acid, reference compound], under setting [1], the “endogenous concentration in brain” value is on record as 38 ng/g, the “endogenous concentration in liver” value came out at 352 ng/mg and the “endogenous concentration in serum” value turned out to be 96 ng/mL.
